Source: PMC8445821
No constants are given. Whether binding was seen depends on the method and setting. In cells and extracts the contact can be indirect. Some results given as binding are weak or reduced against the parent protein; the word gives no strength.

Protein sequences, listed by entry. Tags and fused reporters are not part of them. Lines headed by an entry give the natural chain unless they say otherwise; changes in a name come on top. Residues count along the entry.
UniProt P10244: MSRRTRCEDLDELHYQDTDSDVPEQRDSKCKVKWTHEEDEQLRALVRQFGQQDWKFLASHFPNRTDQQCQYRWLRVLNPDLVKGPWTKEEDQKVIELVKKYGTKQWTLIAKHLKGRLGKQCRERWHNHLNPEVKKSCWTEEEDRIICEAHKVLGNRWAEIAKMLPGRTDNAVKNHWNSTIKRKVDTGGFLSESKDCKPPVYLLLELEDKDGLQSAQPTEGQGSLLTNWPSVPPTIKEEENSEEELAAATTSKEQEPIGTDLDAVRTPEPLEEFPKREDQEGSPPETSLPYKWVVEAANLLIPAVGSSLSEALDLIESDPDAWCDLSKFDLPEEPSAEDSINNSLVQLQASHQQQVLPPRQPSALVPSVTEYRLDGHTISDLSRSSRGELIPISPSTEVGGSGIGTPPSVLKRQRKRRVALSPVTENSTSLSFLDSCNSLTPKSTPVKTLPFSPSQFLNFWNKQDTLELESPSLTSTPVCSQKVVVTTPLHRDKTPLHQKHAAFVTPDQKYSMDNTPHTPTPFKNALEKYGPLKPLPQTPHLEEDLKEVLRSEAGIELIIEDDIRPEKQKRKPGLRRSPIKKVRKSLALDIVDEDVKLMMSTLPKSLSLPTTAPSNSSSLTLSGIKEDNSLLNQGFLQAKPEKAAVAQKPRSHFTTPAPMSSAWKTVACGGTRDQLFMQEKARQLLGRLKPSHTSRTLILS
B-Myb amino acid 1-561 region (deletion mutant): residues 1-561 of P10244
UniProt Q14209: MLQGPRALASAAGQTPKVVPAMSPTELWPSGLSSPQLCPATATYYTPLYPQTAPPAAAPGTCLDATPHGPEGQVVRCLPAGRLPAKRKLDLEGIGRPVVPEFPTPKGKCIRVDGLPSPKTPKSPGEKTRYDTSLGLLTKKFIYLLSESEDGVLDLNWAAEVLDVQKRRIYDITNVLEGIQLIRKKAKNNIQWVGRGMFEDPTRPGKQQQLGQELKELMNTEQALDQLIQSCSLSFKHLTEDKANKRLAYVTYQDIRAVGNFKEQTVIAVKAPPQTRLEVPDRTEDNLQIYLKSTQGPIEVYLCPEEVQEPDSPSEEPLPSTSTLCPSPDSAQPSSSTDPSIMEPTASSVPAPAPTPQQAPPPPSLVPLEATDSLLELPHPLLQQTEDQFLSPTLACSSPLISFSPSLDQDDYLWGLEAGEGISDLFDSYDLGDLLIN

Columns and labels:
[1] = biological target: B-Myb-Flag (LV203-B-Myb-Flag) (human) (UniProt P10244); test: co-IP; HCT116 cells co-transfected with LV203-B-Myb-Flag and pcDNA3.0-E2F2, whole cell lysates 48 h after transfection, anti-Flag immunoprecipitates blotted for E2F2
[2] = biological target: B-Myb amino acid 1-561 region (deletion mutant) (human) (UniProt P10244); test: co-IP; HEK293 cells transiently co-transfected with LV105-Flag-B-Myb or pCDH-puro-HA-E2F2 and the indicated deletion mutants, whole cell lysates 48 h after transfection
[3] = biological target: Flag-B-Myb (LV105-Flag-B-Myb) (human) (UniProt P10244); test: as above
[4] = biological target: B-Myb in HCT116 and RKO cells (proximity ligation assay) (human (in HCT116 and RKO cells)) (UniProt P10244); test: proximity ligation; in situ PLA in HCT116 and RKO cells with antibodies against B-Myb and E2F2; either antibody alone as control

With “E2F2 (pcDNA3.0-E2F2) (from UniProt Q14209 1-437)” as the substance, how does the binding [1] read?
Its binding is “binds”.

Which binding [2] does the source give for “HA-E2F2 (pCDH-puro-HA-E2F2) (from UniProt Q14209 1-437)” here?
Its binding is “binds”.

With “E2F2 amino acid 1-244 region (deletion mutant) (from UniProt Q14209 1-244) (domain or fragment)” as the substance, how does the binding [3] read?
The binding was “binds”.

How did the binding [4] turn out when “E2F2 in HCT116 and RKO cells (proximity ligation assay) (from UniProt Q14209 1-437)” was run?
The binding was “binds”.
